Among the data in article doi:10.1101/2024.01.16.575602 are binding values, retold here.

Sequences of proteins named here, by UniProt entry; tags and fusion partners are left off.
UniProt P43694: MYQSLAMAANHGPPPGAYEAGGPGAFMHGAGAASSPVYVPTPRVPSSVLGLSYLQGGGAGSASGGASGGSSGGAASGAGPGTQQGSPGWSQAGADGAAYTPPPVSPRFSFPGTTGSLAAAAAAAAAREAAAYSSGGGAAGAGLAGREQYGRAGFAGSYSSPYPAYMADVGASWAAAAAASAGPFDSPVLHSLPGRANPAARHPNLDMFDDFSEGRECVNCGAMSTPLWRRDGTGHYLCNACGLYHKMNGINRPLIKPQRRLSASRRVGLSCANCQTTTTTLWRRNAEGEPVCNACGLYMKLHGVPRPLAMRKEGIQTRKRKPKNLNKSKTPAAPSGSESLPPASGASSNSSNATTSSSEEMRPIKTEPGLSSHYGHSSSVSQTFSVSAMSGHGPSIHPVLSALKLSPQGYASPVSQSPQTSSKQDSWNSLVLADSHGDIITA
UniProt Q09472: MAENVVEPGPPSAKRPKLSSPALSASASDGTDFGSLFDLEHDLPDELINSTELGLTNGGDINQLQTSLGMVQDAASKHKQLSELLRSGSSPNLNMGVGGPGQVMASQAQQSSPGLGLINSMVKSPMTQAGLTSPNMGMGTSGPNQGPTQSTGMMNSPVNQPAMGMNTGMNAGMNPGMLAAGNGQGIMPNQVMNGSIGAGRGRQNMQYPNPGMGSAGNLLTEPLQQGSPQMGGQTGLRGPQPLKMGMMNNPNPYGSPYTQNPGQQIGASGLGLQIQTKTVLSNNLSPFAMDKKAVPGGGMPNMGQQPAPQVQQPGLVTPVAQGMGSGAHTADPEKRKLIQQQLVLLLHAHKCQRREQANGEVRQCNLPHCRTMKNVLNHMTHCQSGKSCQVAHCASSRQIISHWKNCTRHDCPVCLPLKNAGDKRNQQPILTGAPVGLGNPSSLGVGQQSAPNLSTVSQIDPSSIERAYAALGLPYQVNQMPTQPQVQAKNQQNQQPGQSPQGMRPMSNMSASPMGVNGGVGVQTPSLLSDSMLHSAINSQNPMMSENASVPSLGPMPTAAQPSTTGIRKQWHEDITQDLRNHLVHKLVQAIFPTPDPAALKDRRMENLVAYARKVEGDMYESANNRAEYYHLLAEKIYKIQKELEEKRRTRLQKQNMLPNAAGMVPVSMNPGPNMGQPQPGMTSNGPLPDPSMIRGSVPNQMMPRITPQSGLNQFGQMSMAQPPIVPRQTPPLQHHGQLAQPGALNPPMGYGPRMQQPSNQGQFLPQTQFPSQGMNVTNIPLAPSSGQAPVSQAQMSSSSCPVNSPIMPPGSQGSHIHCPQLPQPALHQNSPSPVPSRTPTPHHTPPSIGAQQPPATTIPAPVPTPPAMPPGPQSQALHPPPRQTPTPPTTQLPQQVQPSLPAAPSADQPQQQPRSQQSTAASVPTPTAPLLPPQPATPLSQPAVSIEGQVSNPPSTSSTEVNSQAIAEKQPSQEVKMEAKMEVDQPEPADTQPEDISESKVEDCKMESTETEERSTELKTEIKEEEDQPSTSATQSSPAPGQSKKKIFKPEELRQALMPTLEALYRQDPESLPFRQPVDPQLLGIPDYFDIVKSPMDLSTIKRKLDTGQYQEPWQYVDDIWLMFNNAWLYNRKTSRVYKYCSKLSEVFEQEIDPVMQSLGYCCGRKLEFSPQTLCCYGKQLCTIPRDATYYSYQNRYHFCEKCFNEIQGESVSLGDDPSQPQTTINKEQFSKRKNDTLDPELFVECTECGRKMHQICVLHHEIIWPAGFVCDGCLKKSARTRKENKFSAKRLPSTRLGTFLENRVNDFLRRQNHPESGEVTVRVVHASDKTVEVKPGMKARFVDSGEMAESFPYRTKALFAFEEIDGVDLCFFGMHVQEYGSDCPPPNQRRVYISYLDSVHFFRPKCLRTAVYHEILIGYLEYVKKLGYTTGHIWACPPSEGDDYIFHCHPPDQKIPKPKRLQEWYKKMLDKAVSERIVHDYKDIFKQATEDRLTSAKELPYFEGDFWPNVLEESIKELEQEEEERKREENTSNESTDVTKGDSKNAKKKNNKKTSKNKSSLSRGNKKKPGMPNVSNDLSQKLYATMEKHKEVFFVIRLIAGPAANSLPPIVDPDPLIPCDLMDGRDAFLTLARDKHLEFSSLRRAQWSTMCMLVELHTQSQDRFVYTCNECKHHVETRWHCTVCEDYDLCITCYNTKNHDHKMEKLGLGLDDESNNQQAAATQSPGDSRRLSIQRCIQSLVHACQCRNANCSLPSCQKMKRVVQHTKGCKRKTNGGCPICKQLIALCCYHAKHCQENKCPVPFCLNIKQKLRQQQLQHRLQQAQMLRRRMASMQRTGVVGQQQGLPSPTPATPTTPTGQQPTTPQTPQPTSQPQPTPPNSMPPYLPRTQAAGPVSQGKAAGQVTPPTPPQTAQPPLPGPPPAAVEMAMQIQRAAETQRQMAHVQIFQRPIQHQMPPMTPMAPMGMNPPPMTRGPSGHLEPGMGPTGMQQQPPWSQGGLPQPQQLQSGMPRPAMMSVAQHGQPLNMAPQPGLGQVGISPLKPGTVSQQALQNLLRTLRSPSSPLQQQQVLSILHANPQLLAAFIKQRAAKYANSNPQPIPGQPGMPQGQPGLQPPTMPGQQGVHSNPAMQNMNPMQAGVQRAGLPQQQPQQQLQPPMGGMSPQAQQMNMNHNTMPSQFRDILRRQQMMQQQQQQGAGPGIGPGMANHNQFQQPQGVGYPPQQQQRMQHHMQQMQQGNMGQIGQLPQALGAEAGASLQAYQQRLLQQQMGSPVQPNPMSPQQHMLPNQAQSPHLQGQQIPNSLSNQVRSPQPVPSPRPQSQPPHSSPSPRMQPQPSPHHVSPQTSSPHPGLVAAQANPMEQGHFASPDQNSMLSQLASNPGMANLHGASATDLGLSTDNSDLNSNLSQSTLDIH

Results are given in words; binding and its absence hold for the method and conditions named. Binding seen in cells or lysates may run through a third protein. Some results given as binding are weak or reduced against the parent protein; the word gives no strength.

This assay concerns the target GATA4 (UniProt P43694). Description: co-IP.

p300 (from UniProt Q09472 1-2414): the binding entry was “binds”.
